{"sequences": {"note": "The chains behind the UniProt entries cited, without tags or fusion partners. Where a name states a change or a piece, a line headed by the entry shows the natural chain unless it says otherwise.", "UniProt Q5W0Z9": "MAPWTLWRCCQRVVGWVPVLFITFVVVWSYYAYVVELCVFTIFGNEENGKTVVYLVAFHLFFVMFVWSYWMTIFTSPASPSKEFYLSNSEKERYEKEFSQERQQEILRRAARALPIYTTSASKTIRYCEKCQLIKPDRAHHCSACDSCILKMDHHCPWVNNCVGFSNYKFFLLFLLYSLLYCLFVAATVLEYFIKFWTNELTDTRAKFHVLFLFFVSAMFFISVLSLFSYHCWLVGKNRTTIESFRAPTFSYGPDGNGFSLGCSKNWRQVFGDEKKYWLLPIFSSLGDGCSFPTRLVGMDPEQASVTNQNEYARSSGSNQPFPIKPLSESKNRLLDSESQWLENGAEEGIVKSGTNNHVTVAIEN", "UniProt Q9BTU6": "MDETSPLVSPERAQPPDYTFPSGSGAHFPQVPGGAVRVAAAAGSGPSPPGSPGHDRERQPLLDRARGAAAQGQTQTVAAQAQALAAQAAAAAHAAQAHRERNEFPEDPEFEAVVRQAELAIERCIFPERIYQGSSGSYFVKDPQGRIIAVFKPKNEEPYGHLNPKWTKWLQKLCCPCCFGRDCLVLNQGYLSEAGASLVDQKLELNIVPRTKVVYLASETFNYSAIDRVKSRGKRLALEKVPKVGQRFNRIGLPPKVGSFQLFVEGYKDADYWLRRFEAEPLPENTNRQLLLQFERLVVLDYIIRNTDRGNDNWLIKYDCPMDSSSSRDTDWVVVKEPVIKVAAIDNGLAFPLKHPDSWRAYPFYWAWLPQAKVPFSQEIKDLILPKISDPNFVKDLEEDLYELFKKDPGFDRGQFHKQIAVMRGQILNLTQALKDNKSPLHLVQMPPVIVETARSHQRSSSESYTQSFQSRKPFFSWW"}, "source": "paper doi:10.1101/2024.02.14.580290", "target": "DHHC20 (DHHC20-linker-TEV-TwinStrep) (UniProt Q5W0Z9)", "experiment": "affinity purification with mass spectrometry", "note": "Results are given in words; binding and its absence hold for the method and conditions named. In cells and extracts the contact can be indirect. Here binding means that the protein was enriched with, or labelled near, the bait; the list need not be complete."}
{"substance": "Phosphatidylinositol 4-kinase type 2-alpha (PI4K2A) (from UniProt Q9BTU6 1-479) (enzyme)", "values": [{"measurement": "binding", "value": "binds"}]}
